These are yes or no findings as the source states them, for the method shown. Some binding calls cover weakened binding; strength is not graded here. Where a sequence is shown, tags or fusion partners need not be part of it.
Experiments:
[1] = target: 2N4 R tau (human) (UniProt P10636); assay: flow cytometry, scFv-Ms-Fc titrated about 3 to 10000 ng/ml on cells transfected with the tau isoform, mean fluorescence of transfected cells
[2] = target: 1N4 R tau (human) (UniProt P10636); assay: as above
[3] = target: 2N4 R tau (human) (UniProt P10636); assay: Western blot of 2N3R, 2N4R and mock lysates probed with VR7082 scFv-Ms-Fc
[4] = target: 2N4 R tau (human) (UniProt P10636); assay: ELISA, scFv-Ms-Fc titrated about 3 to 10000 ng/ml on coated tau isoform, OD 630 nm
[5] = target: 1N4 R tau (human) (UniProt P10636); assay: as above

Sequences of proteins named here, by UniProt entry; tags and fusion partners are left off. A change or cut given only in a name is not applied to a line headed by its entry. A line that says so, or that is headed by a name, gives the form on record, which may keep a tag or linker.
1N4 R tau (P10636, form named): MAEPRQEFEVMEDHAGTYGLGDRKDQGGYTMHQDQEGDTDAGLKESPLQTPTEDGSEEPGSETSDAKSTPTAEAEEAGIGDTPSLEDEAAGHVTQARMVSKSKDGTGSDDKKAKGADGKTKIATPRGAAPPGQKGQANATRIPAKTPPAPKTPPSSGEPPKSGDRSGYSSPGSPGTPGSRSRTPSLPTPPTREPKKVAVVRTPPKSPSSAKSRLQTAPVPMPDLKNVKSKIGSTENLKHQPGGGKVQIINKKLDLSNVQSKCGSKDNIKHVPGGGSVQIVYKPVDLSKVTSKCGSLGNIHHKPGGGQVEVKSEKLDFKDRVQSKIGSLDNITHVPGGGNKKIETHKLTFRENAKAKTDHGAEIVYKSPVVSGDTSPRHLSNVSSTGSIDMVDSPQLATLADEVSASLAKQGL

Measured: binding

B1: VR7082 scFv-Ms-Fc (Fc fusion, not shown: a dimerising Fc or GST)
scFv: MAQSVEESGGRLVTPGTPLTLTCTVSGIDLSNYAMIWVRQAPGEGLEYIGIISSTGNTFYATWAKGRFTISKTSTTVDLKITSPTAEDTATYFCARDTNSDSHYGWEAFNIWGPGTLVTVSSGGGGSGGGGSGGGGSGGGGSAVVLTQTPASVEAAVGGTVSINCQASEDIESYLAWYQQKPGQRPKLLIYRASTLASGVSSRFKGSGSGTEYTLTISGVECADAATYYCQEGYSIHVDNVFGGGTEVVVK
binds: all assays above

From US20240409624A1
